Some of the results follow. Most entries show no effect beyond the scatter of the controls.
compound: CN[C@@H]1C[C@H]2O[C@@](C)([C@@H]1OC)n1c3ccccc3c3c4c(c5c6ccccc6n2c5c31)C(=O)NC4 [staurosporine]; assay: log2 fold change of pooled soluble protein (PISA), ligand vs vehicle (log2 ratio); higher = more thermally stabilized; settings: ligand concentration: 20 uM; assay format: PISA pool 52.9/55.5/58.6 C

Chains of the proteins cited; added tags and fusions are not shown. Lines headed by an entry give the natural chain unless they say otherwise; changes in a name come on top.
UniProt B1AUE5: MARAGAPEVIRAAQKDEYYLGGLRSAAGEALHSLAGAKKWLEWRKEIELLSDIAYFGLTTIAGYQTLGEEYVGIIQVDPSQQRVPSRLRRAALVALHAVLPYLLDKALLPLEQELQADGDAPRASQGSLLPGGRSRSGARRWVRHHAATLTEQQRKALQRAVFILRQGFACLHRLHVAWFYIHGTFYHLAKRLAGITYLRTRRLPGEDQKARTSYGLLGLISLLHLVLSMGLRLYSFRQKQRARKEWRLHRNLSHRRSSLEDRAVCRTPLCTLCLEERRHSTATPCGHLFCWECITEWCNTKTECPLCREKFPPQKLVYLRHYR
UniProt A2AMZ4: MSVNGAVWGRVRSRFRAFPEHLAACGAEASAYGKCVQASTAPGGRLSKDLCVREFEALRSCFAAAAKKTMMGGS
UniProt A0JNU3: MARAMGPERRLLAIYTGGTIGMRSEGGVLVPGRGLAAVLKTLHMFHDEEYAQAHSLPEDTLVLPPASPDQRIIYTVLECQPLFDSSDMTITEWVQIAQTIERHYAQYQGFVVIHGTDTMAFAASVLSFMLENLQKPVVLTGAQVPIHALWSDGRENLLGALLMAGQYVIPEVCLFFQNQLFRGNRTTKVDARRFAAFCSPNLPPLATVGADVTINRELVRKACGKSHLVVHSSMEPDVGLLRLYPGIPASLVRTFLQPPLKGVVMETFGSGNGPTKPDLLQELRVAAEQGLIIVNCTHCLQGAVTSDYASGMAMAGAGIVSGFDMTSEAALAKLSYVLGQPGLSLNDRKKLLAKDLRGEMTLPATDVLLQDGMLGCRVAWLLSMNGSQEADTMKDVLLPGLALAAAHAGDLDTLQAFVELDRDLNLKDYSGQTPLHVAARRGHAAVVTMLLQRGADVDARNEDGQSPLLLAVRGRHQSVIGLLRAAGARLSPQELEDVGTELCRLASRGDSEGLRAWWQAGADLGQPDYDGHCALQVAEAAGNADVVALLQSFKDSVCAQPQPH
UniProt B7ZMP1: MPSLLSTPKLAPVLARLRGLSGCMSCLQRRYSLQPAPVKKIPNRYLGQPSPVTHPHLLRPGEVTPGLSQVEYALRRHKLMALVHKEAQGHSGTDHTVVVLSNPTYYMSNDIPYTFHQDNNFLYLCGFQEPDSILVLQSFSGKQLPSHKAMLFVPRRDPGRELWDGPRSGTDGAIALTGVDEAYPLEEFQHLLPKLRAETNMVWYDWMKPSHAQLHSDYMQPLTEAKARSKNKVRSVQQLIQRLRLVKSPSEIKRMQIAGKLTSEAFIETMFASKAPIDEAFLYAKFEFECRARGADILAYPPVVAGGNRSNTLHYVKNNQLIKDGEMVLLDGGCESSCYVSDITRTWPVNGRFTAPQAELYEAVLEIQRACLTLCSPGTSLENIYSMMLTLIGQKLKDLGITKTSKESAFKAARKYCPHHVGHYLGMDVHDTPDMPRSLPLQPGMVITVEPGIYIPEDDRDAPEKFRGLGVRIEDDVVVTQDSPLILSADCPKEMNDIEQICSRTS
UniProt A2AQ25: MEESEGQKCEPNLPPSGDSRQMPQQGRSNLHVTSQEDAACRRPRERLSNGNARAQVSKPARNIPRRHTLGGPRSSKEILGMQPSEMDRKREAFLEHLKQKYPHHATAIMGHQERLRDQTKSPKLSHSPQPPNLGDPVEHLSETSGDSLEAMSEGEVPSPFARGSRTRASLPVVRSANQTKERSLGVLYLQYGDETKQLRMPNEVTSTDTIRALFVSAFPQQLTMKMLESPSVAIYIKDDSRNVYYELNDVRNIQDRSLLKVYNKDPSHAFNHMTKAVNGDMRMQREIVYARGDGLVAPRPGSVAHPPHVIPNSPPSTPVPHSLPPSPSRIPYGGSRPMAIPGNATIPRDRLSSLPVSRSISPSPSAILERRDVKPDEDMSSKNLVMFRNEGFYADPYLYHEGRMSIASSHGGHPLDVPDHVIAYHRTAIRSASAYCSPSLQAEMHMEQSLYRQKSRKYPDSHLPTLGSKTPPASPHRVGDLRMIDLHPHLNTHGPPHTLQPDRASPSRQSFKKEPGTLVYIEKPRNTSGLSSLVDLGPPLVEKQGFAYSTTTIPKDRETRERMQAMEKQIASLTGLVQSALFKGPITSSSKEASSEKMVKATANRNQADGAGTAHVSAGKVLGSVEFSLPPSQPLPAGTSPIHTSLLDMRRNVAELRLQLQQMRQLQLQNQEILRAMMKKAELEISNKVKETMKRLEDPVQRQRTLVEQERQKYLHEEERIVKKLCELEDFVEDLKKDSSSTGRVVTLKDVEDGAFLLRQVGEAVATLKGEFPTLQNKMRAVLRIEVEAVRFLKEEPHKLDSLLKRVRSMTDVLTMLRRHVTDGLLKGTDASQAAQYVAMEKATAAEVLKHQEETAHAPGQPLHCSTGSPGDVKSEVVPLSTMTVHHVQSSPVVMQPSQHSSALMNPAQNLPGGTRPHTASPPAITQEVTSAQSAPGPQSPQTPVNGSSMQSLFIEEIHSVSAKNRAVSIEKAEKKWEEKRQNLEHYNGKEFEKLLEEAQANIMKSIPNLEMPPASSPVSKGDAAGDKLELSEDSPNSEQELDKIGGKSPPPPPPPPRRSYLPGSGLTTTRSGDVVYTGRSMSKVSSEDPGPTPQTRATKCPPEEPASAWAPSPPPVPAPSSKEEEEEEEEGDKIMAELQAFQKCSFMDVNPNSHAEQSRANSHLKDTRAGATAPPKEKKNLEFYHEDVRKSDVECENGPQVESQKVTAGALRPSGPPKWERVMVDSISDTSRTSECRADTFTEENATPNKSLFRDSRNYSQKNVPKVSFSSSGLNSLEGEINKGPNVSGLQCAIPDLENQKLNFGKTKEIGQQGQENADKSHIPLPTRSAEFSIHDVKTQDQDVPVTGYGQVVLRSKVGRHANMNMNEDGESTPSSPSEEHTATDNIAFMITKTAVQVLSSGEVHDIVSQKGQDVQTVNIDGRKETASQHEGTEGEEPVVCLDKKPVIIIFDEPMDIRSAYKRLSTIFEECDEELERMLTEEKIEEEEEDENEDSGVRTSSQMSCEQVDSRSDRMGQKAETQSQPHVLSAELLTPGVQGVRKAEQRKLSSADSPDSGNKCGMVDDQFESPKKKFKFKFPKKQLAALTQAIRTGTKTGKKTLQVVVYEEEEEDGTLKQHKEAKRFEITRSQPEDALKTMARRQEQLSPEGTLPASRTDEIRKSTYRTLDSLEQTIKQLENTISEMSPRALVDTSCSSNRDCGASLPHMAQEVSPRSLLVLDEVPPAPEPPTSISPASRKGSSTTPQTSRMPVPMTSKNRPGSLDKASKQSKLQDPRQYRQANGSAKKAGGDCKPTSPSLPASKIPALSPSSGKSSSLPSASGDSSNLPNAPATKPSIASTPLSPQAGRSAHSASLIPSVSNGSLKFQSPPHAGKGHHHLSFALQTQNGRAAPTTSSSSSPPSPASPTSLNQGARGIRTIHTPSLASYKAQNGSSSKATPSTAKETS
UniProt B8ZXI1: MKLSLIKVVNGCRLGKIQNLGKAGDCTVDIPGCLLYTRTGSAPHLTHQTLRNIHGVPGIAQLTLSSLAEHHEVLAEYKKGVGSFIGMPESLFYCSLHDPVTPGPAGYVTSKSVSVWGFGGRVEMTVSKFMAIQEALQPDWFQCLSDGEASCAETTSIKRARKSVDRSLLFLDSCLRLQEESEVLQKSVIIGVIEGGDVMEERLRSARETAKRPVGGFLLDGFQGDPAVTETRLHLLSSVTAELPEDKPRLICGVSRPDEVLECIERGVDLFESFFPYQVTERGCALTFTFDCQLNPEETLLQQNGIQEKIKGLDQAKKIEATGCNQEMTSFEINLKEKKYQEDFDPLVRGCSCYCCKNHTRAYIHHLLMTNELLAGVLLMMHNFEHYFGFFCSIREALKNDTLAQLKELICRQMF
UniProt E9Q5C9: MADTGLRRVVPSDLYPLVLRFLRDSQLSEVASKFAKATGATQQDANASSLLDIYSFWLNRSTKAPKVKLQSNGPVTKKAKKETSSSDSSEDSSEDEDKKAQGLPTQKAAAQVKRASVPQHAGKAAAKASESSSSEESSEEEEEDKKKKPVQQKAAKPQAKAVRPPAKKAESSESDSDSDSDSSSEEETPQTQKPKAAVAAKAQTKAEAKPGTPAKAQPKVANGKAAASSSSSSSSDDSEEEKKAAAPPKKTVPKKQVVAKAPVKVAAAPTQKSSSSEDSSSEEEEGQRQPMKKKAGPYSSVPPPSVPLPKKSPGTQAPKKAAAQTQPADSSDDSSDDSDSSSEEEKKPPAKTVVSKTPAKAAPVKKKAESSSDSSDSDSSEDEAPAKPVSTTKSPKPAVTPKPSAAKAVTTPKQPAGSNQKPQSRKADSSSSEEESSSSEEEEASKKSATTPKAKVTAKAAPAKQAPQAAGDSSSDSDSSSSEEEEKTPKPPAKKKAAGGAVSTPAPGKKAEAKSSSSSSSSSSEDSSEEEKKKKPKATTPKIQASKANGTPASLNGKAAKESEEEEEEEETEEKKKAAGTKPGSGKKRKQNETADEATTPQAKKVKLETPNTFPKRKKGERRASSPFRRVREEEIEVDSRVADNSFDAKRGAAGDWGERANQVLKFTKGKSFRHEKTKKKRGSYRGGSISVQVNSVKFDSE
UniProt A3KMN5: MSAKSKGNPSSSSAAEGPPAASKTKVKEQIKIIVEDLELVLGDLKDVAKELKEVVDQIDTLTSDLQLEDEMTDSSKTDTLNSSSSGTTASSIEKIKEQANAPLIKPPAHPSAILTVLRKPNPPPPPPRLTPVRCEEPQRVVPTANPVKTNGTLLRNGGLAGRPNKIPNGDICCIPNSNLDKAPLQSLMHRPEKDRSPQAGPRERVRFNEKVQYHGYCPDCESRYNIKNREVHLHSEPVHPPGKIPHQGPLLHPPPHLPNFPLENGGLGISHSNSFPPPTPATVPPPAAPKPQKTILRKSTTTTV
UniProt B1ARW8: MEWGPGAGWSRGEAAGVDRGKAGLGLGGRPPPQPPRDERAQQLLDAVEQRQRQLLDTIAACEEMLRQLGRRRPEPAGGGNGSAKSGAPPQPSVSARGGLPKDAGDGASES
UniProt E9PV24: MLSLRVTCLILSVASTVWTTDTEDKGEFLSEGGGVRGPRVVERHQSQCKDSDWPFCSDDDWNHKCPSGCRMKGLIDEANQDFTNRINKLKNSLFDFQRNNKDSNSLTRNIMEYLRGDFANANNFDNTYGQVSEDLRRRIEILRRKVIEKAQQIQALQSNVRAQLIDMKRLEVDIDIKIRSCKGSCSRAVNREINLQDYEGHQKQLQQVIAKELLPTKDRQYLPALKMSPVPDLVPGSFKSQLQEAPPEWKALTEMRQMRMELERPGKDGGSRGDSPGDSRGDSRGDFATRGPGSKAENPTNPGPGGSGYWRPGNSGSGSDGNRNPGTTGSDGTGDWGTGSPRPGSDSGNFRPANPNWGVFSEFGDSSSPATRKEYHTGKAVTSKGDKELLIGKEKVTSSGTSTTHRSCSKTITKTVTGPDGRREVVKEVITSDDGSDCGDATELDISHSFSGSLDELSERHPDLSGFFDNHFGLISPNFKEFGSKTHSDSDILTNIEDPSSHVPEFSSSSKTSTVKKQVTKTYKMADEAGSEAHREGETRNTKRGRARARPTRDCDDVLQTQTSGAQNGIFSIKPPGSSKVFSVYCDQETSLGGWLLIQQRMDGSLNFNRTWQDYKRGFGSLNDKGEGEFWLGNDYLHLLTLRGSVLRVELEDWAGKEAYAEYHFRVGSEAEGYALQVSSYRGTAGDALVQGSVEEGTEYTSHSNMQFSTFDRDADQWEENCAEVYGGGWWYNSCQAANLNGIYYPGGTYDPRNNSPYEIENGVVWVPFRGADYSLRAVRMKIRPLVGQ

Target | log2 fold change of pooled soluble protein
UniProt E9Q394 | -0.0685
UniProt B1AUE5 | 0.0684
UniProt A2ASZ8 | -0.0354
UniProt A2AMZ4 | -0.0962
UniProt E9Q137 | 0.0908
UniProt E9Q3L2 | -0.172
UniProt A2AKQ0 | -0.122
UniProt A2AQ19 | -0.0341
UniProt E9QAT4 | -0.134
UniProt A0JNU3 | 0.0341
UniProt A6X919 | -0.173
UniProt E9PYK3 | 0.101
UniProt A2AJT4 | -0.154
UniProt E9Q6J5 | -0.0339
UniProt B7ZMP1 | -0.052
UniProt A2RSJ4 | 0.0491
UniProt A2AGT5 | -0.313

A different layout for part of the listing above.

| Target | log2 fold change of pooled soluble protein |
| --- | --- |
| UniProt B1AUE5 | 0.0684 |
| UniProt E9Q3L2 | -0.172 |

Next part:

Target | log2 fold change of pooled soluble protein
UniProt A6X935 | 0.00931
UniProt B2RY56 | 0.196
UniProt A2AQ25 | 0.103
UniProt A6H6A9 | -0.000584
UniProt E9Q1P8 | 0.0726
UniProt B8ZXI1 | -0.033
UniProt F6ZDS4 | -0.03
UniProt E9Q5C9 | -0.0318
UniProt A3KMN5 | -0.0312
UniProt F8VPQ2 | -0.138
UniProt A2AHC3 | 0.0984
UniProt B1ARW8 | -0.332
UniProt B2RQC6 | 0.0445
UniProt A2AR02 | -0.429
UniProt E9PV24 | -0.0953
UniProt F8VPK0 | -0.152

— the supplement of paper PMC12819154, “High-throughput peptide-centric local stability assay extends protein–ligand identification to membrane proteins, tissues and bacteria” (Nature Structural & Molecular Biology, 2025)
